IC50 data for 1 compound are collected here from paper PMC3541164, “Cytotoxic and potent CYP1 inhibitors from the marine algae Cymopolia barbata” (Organic and Medicinal Chemistry Letters, 2012).

The test concerns HepG2 cells. Briefly: MTS cell viability assay, liver cancer cells. The test is classed as cell-based. Particulars: Homo sapiens, 24 h exposure, read-out: IC50 cell viability HepG. The protocol:
Cell lines (CCD18 Co, HepG2 and MCF-7) were maintained in ATCC-formulated Eagle’s Minimum Essential Medium and HT29 was maintained in McCoy’s 5a Modified Medium supplemented with 10% fotal bovine serum (Atlas; Fort Collins, CO, USA), 10 mM HEPES solution, 100 mM L-glutamine penicillin streptomycin solution, 3 g/L glucose, and 1.5 g/L of sodium bicarbonate. Cells were maintained at 37°C with 5% CO2 in Corning 75 cm^2 culture flasks. Cells were exposed to a given isolate or known anticancer agent for 24 h. Following the appropriate treatments, cell viability was evaluated using an MTS assay according to the manufacturer’s instructions. All assays were performed at least three times and were monitored spectrophotometrically at 590 nm. Cell viability was recorded as percentage relative to vehicle solvent-treated control.
In general terms: Tetrazolium dyes change colour on reduction, which living cells bring about.

Take `COc1cccc2c1C(=O)c1c(O)c3c(c(O)c1C2=O)C[C@@](O)(C(=O)CO)C[C@@H]3O[C@H]1C[C@H](N)[C@H](O)[C@H](C)O1` [Doxorubicin, doxorubicin, reference compound]: the concentration for half-maximal inhibition (IC50) came to 18.6 ± 0.58 µM.

By IC50 is commonly meant the midpoint of a concentration-inhibition curve.
